Data on 2 compounds can be found in paper PMC10014103, “The immunometabolite itaconate stimulates OXGR1 to promote mucociliary clearance during the pulmonary innate immune response” (The Journal of Clinical Investigation, 2023).

The data set is described as follows: Endogenous metabolite concentrations in BAL and epithelial lining fluid of mice (LC-MS, GC-MS). Format: in vivo, mouse. As to conditions: for endogenous concentration in BAL, PAO1-infected mice: 12 hours post infection, ITA by LC-MS, α-KG by GC-MS (detection threshold).

On to `C=C(CC(=O)O)C(=O)O` [ITA, itaconate], for which the “endogenous concentration in BAL, PAO1-infected mice” value fell in the range of 122 to 689 nM. Besides, the “endogenous concentration in BAL, uninfected mice” value (LC-MS) was in the range of 0 to 0.067 nM. Besides, for the setting “calculated from BAL using urea as marker of dilution”, the “concentration in undiluted ELF, PAO1-infected mice, range” value is 18 to 215 µM. Moreover, the “concentration in undiluted epithelial lining fluid (ELF), PAO1-infected mice” value (calculated from BAL using urea as marker of dilution, mean) is 109.5 ± 69.2 µM.

On to `O=C(O)CCC(=O)C(=O)O` [α-KG, α-ketoglutaric acid, reference compound], for which the “endogenous concentration in BAL, PAO1-infected mice” value was below 125 nM.
